We go through 30 targets from the supplement of paper PMC10849652.

The chains behind the UniProt entries cited, without tags or fusion partners. Where a name states a change or a piece, a line headed by the entry shows the natural chain unless it says otherwise.
UniProt P11309, whole entry, looked up: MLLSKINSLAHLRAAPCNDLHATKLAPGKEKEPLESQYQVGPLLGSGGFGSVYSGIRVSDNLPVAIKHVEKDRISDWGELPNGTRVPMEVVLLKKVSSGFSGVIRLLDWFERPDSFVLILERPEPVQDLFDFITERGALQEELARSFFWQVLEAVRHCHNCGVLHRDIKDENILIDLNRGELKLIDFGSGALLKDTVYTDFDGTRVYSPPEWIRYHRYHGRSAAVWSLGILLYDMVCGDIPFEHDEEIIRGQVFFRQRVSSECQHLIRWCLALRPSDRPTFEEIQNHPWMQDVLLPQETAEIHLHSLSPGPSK
UniProt Q15149: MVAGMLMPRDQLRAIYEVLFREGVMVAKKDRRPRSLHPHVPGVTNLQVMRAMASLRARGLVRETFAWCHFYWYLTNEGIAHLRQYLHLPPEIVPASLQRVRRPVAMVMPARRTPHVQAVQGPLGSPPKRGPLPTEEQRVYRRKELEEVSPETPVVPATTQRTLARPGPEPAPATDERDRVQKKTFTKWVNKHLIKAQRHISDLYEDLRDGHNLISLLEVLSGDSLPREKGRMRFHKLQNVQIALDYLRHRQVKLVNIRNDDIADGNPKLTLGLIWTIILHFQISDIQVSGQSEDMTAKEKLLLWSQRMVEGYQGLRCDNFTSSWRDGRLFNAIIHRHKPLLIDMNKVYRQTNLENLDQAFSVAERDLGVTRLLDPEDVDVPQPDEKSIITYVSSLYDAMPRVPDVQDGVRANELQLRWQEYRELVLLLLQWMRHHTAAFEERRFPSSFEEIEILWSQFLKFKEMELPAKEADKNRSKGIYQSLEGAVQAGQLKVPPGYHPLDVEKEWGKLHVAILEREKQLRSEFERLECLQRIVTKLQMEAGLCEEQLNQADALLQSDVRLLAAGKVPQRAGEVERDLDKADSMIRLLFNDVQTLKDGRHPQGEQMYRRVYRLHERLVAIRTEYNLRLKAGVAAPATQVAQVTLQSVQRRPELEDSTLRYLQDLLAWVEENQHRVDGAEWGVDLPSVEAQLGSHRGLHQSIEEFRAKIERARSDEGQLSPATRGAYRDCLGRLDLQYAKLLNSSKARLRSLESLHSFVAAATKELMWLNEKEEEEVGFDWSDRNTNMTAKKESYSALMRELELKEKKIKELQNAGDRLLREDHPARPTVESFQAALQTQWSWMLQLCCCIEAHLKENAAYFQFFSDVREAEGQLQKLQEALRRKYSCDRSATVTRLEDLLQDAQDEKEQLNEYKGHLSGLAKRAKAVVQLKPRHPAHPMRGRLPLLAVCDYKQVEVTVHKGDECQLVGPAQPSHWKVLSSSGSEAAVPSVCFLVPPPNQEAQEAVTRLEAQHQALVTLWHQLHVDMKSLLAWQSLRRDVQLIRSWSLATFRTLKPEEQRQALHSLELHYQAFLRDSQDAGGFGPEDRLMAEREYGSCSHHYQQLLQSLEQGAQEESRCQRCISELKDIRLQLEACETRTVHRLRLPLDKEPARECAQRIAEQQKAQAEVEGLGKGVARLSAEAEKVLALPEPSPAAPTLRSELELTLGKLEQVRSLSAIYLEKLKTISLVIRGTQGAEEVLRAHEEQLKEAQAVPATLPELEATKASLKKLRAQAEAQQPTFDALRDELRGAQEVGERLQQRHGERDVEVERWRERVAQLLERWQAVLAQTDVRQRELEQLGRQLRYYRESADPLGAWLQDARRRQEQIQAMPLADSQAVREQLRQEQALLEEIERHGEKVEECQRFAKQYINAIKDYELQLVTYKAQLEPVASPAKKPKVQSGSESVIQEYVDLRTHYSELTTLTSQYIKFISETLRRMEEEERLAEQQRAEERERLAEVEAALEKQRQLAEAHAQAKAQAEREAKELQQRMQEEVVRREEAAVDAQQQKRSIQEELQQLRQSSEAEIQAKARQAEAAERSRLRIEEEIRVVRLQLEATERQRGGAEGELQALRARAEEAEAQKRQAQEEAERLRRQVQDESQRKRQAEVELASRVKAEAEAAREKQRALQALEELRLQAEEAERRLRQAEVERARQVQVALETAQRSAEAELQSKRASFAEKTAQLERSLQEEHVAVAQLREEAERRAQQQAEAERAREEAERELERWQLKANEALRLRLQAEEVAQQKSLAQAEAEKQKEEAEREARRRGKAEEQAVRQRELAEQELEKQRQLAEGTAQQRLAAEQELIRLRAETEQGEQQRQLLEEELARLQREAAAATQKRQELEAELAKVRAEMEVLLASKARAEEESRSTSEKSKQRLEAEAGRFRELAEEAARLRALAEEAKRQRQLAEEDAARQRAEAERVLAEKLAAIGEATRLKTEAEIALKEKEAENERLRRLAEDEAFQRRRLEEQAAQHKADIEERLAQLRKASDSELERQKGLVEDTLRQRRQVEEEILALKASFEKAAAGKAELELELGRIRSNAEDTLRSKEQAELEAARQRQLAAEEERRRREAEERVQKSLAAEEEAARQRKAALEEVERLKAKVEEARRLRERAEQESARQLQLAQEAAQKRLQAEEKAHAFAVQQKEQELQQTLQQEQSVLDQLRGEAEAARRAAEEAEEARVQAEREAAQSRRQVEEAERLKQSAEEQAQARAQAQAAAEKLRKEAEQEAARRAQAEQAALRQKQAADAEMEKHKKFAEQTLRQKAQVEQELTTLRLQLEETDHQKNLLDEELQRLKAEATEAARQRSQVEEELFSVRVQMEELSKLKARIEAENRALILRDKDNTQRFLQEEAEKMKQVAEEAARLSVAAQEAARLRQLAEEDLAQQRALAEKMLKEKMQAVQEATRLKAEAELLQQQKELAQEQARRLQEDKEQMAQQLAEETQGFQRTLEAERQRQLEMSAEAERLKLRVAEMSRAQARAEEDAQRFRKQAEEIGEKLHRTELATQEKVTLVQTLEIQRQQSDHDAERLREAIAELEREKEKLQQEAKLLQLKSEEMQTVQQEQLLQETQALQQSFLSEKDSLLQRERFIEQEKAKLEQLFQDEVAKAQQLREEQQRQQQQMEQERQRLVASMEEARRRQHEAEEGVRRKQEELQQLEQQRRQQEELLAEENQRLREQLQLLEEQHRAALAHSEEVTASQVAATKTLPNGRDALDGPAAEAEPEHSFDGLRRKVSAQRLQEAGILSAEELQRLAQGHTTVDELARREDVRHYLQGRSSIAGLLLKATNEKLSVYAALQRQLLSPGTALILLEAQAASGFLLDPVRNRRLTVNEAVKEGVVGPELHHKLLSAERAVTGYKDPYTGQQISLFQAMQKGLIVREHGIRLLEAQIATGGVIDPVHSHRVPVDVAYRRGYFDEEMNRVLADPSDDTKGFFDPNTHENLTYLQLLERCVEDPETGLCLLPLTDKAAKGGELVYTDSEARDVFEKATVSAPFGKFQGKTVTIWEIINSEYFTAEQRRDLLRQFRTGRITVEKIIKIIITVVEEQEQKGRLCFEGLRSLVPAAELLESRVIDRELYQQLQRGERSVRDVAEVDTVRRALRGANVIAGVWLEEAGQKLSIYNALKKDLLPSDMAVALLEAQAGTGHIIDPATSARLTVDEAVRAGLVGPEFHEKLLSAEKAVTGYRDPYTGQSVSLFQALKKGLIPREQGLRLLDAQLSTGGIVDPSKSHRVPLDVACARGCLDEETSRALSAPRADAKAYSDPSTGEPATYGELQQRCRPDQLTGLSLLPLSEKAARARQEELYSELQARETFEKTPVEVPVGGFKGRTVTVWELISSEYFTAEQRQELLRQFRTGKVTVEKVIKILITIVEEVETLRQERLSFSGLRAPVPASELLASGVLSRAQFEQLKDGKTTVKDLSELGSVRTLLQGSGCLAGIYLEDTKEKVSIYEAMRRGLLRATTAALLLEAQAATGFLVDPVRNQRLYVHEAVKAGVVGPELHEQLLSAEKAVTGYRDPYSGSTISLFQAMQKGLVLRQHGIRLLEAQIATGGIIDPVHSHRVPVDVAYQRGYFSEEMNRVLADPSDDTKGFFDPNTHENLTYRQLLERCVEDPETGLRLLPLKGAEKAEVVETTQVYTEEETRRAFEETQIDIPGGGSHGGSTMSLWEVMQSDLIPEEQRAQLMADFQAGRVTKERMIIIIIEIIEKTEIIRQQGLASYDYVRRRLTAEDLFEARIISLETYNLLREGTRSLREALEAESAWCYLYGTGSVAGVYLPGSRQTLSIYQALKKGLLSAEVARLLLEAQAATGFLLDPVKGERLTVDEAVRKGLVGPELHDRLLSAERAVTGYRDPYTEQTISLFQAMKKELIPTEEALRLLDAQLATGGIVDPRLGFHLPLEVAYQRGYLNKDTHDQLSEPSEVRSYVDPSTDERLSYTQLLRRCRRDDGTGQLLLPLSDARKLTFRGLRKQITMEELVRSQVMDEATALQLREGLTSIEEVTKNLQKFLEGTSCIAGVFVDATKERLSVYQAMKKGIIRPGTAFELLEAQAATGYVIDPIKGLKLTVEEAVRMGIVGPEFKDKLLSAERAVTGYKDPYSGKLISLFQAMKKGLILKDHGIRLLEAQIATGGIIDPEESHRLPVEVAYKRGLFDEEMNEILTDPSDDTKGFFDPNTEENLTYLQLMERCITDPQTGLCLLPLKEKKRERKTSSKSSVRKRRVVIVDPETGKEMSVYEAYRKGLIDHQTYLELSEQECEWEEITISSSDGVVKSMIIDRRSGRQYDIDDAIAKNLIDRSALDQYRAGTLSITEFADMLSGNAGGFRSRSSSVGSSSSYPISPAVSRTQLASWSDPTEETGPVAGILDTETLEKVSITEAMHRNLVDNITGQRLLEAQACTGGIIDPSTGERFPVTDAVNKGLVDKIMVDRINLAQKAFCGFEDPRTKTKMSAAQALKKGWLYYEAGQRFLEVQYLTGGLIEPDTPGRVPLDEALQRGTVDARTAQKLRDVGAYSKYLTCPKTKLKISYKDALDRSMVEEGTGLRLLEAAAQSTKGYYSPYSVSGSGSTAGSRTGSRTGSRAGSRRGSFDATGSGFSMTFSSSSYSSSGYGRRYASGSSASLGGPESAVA
PIGBOS1, A0A0B4J2F0, UniProt A0A0B4J2F0, whole entry, looked up: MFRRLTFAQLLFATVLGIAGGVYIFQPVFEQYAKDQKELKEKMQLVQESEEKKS
UniProt Q99640: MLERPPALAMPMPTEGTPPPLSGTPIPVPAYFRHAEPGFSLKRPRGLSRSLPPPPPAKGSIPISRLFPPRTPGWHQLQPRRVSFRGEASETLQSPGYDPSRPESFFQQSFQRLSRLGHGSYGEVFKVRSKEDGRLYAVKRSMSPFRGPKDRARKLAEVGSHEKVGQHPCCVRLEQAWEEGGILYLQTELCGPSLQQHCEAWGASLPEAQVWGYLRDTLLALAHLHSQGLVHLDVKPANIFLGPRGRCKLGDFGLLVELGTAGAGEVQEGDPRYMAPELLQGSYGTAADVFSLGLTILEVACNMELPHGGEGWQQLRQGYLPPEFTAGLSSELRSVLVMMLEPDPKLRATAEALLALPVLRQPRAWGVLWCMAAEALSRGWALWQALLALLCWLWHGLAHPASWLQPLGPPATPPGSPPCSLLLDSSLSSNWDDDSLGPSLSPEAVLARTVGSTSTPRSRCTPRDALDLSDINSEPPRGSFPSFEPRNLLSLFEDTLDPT
UniProt Q9BVI0: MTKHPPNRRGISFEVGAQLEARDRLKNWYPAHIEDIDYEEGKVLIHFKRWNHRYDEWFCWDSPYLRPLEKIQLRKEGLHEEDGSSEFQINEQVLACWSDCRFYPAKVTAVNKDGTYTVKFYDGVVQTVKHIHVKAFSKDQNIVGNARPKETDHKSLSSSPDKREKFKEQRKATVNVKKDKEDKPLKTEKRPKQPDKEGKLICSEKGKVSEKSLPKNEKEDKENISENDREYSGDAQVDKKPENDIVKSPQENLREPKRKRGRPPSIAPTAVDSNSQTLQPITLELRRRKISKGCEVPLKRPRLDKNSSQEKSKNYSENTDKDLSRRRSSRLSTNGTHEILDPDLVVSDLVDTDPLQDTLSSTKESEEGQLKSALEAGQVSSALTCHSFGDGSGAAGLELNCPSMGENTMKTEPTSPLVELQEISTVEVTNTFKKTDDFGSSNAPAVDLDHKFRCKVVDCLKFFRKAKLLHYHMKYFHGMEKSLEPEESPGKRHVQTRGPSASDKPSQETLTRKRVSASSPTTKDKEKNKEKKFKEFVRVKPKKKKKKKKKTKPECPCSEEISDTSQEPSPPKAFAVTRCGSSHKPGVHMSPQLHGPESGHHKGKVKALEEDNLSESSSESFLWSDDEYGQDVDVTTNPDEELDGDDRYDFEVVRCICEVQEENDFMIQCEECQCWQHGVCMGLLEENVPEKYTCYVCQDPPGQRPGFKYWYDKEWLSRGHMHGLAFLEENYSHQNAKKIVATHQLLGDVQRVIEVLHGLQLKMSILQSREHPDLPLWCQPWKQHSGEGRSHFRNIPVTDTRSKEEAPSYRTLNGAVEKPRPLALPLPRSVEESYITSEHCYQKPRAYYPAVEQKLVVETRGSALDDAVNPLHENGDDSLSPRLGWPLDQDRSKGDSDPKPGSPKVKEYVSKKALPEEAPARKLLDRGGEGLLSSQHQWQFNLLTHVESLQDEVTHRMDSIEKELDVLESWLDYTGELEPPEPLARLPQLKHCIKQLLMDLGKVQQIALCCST

Some of the results follow.

Compound in the first experiment: CS(=O)(=O)N1CCN(Cc2cc3nc(-c4cccc5[nH]ncc45)nc(N4CCOCC4)c3s2)CC1 [pictilisib]
Briefly: log2 fold change, soluble protein after heating vs DMSO (PISA); higher = thermal stabilisation; K562 lysate, 10 uM; active = over 0.2 and 3.5 SD of the protein, either way, in both replicates (recomputed). Summed up:
(§1)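 The values are log-two fold changes in thermal stability compared with solvent controls and come from duplicates. They were obtained by TMTpro 16plex LC-MS/MS, with channel sums equalised, on the supernatant after 21,000xg for 90 min. That supernatant came from crude K562 extract at 1 mg/mL protein treated with 10 μM compound for 30 min, heated for 3 min across 48°C-58°C, pooled and brought to 0.5% NP-40 at 4°C.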
In the case of PITX1 (UniProt P78337), the log2 fold change was inactive: 0.14.
Regarding PHOX2B (UniProt Q99453), the log2 fold change was inactive: 0.014.
As for PITPNM1 (UniProt O00562), the log2 fold change is inactive: -0.1.
Take PIP5K1B isoform 2 (UniProt O14986): the log2 fold change is inactive: 0.197.
The same measure, in the same setting: next, PHLPP1 (UniProt O60346): inactive: -0.224; PLEKHA2 (UniProt Q9HB19): inactive: -0.044.
For PHF19 isoform 2 (UniProt Q5T6S3), the log2 fold change was inactive: -0.001.
For PKN3 (UniProt Q6P5Z2), the log2 fold change is inactive: -0.073.
For the target PIK3AP1 (UniProt Q6ZUJ8), the log2 fold change was inactive: -0.004.
For PIM1 isoform 2 (UniProt P11309), the log2 fold change is inactive: 0.084.
In the case of PLEC isoform 3 (UniProt Q15149), the log2 fold change was inactive: -0.174.
On to PIMREG (UniProt Q9BSJ6), for which the log2 fold change was inactive: -0.15.
On to PIGB (UniProt Q92521), for which the log2 fold change was inactive: 0.124.
PHC1 (UniProt P78364): the log2 fold change is inactive: -0.025.

Compound in a further experiment: C[C@@H](Oc1cc(-c2cnn(C3CCNCC3)c2)cnc1N)c1c(Cl)ccc(F)c1Cl [crizotinib]
Described as above. Summed up:
as §1
In the case of PIGBOS1, A0A0B4J2F0, the log2 fold change was inactive: 0.042.
The same measure, in the same setting: to PKMYT1 (UniProt Q99640) belongs inactive: 0.054.
In the case of PITX1 (UniProt P78337), the log2 fold change was inactive: -0.013.
PIAS4 (UniProt Q8N2W9): the log2 fold change is inactive: -0.009.
The same measure, in the same setting: to PHOSPHO2 (UniProt C9JD35) belongs inactive: 0.02.
Take PHF8 (UniProt Q9UPP1): the log2 fold change was inactive: -0.112.
With PIAS2 (UniProt O75928), the log2 fold change is inactive: -0.045.
Same read-out and setting: to PIGW (UniProt Q7Z7B1) belongs inactive: -0.152; to PHOX2B (UniProt Q99453), inactive: -0.246.
With PITPNM1 (UniProt O00562), the log2 fold change was inactive: -0.053.
Still for that read-out and setting: to PLEK (UniProt P08567) belongs inactive: -0.06.
Consider PIP5K1B isoform 2 (UniProt O14986), for which the log2 fold change was inactive: 0.137.
PHLPP1 (UniProt O60346): the log2 fold change is inactive: -0.008.
On to PHF19 (UniProt Q5T6S3), for which the log2 fold change is inactive: 0.046.
Regarding PIK3CG (UniProt P48736), the log2 fold change was inactive: -0.128.
As for PLEKHA2 (UniProt Q9HB19), the log2 fold change was inactive: -0.093.
For the target PHLDB3 (UniProt Q6NSJ2), the log2 fold change is inactive: -0.014.
With PHLDA2 (UniProt Q53GA4), the log2 fold change is inactive: 0.066.
For PKN3 (UniProt Q6P5Z2), the log2 fold change is inactive: -0.123.
For the target PIK3AP1 (UniProt Q6ZUJ8), the log2 fold change was inactive: -0.029.
Consider PIM1 isoform 2 (UniProt P11309), for which the log2 fold change was inactive: -0.107.
Take PHC2 isoform 5 (UniProt Q8IXK0): the log2 fold change is inactive: -0.052.
On the same count and under the same terms, next, PIAS1 isoform 2 (UniProt O75925): inactive: 0.024; PLEKHA3 (UniProt Q9HB20): inactive: -0.019.
On the same count and under the same terms, to PLEC isoform 3 (UniProt Q15149) belongs inactive: -0.056; to PIMREG (UniProt Q9BSJ6), inactive: 0.222; to PIGB (UniProt Q92521), inactive: 0.004.
For the target PHF20 (UniProt Q9BVI0), the log2 fold change was inactive: -0.146.
Take PHC1 (UniProt P78364): the log2 fold change is inactive: 0.063.
